No constants are given. Whether binding was seen depends on the method and setting. Some binding calls cover weakened binding; strength is not graded here.
Biological target: GST-UAP56 (human) (UniProt Q13838)
Experiment: pull-down; GST pulldown with purified recombinant GST-UAP56, His-API5 and His-LMW FGF2; Coomassie blue staining and western blot with anti-His tag antibody; both purified

Amino acid sequences for entries named in this document (tags omitted). A change or cut given only in a name is not applied to a line headed by its entry. Chains listed by the source or under a name are the forms on record and can include a tag or linker. Residues count along the entry.
UniProt Q13838: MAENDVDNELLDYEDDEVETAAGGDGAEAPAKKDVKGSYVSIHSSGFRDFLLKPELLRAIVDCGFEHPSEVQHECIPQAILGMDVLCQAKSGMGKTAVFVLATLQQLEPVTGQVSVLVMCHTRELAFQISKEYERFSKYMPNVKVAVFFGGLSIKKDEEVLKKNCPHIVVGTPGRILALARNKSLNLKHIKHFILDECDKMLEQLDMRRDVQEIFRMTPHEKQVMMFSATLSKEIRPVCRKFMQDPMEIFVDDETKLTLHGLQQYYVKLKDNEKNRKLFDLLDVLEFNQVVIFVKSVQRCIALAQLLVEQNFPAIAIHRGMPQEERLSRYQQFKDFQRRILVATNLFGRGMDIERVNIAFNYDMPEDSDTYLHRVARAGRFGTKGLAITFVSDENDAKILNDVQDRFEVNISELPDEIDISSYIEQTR
His-FGF2, LMW FGF2 (residues 135-288, C211S/C229S) (P09038, form named): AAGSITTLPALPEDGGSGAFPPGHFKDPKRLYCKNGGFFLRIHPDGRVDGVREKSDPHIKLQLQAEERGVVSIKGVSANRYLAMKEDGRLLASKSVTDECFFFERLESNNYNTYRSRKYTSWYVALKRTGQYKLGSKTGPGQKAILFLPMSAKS

binding: binds
Substance: His-FGF2, LMW FGF2 (residues 135-288, C211S/C229S) (from UniProt P09038 135-288)

Source: article PMC7293033
